About 22,000 (6.9%) of roughly 320,000 compounds were called active. The shares of active, inactive and inconclusive entries below differ from those in the screen. Calls come from the whole dose curve; as a rule, active = well fitted inhibition curve with a large enough effect; inconclusive = small, poorly fitted or top-dose-only effect, or another doubt; inactive = no such curve, though single readings can be large or run the other way. A potency beside an inconclusive call is a rough fit, not a confirmed value.
Assay: Primary qHTS for delayed death inhibitors of the malarial parasite plastid, 96 hour incubation
Details: P. falciparum luciferase reporter growth; series mostly up to 28.7 µM
Outline: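 Compounds incubated with erythrocytes infected by luciferase-expressing P. falciparum (2% hematocrit, 0.05% parasitemia final) for 96 hours, 37 C in 5% CO2. Growth inhibition scored as decreased luciferase luminescence.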
For `CCc1nc(CNC(=O)C2CCC(=O)N(CCc3cccc(F)c3)C2)no1` (configuration not stated), the Potency was inconclusive: 7.38 µM [inhibitor, partial curve, poor fit].
For `COc1ccc(C(=O)N2CCN(c3ccc(NC(=O)c4cccnc4)cc3)CC2)cc1`, the Potency was “inactive”.
With `CCOc1cccc2cc(C(=O)NCc3ccc(F)cc3)c(=N)oc12` the Potency was inconclusive: 11.7 µM [inhibitor, partial curve, poor fit].
In the case of `CCOc1ccccc1N1CCN(CC(=O)c2c(N)n(C)c(=O)n(C)c2=O)CC1`, the Potency was inconclusive: 2.08 µM [inhibitor, single point].
In the case of `CC1C/C(=N\Nc2ccc(S(N)(=O)=O)cc2[N+](=O)[O-])CC(C)(C)C1` (configuration not stated), the Potency was inconclusive: 1.04 µM [inhibitor, partial curve, poor fit].
In the case of `Cc1cc(=O)[nH]c(N/N=C/c2ccc(N(C)C)cc2)n1`, the Potency was inconclusive: 3.29 µM [inhibitor, partial curve, poor fit].
With `CCOc1cc(C)c(S(=O)(=O)NC2CCCCC2)cc1C` the Potency was “inactive”.
With `C#CCNC(=O)C1=C[C@H](c2ccccc2)[C@@H](CCCO)[C@H](OCC)O1` the Potency was “inactive”.
With `CN(C1CCCCC1)S(=O)(=O)c1cccc(C(=O)Nc2ccccn2)c1` the Potency was inconclusive: 10.4 µM [inhibitor, single point].
For `COC(=O)C1=C(C)N(C)C(=O)NC1c1ccc(O)c(Cl)c1` (configuration not stated), the Potency was inconclusive: 18.5 µM [inhibitor, single point].
With `Cc1c(CN(C)C(=O)c2sc3cc(Cl)ccc3c2Cl)cnn1C` the Potency was “inactive”.
In the case of `CC1=CC(C)(C)NC(=S)N1c1cccc(C)c1`, the Potency was inconclusive: 5.86 µM [inhibitor, partial curve, poor fit].
In the case of `CCOC(=O)C(C)Sc1nc(=O)n2ccccc2n1` (configuration not stated), the Potency was inconclusive: 3.29 µM [inhibitor, partial curve, poor fit].
With `CCCOC(=O)Cn1cnc2scc(-c3ccc(C)cc3)c2c1=O` the Potency was inconclusive: 18.5 µM [inhibitor, single point].
In the case of `COc1ccc(N(CC(O)CN2C(=O)NC(C)(C)C2=O)S(=O)(=O)c2ccc(C)cc2)cc1` (configuration not stated), the Potency was inconclusive: 0.928 µM [inhibitor, full curve, poor fit].
For `COCCCNC(=O)CCC(=O)NNc1nc2ccccc2c2nc(-c3ccccc3)nn12`, the Potency was inconclusive: 2.94 µM [inhibitor, full curve, poor fit].
For `CCN(CC)S(=O)(=O)c1ccc(C)c(NC(=S)Nc2cccc(S(=O)(=O)N3CCCCCC3)c2)c1`, the Potency was inconclusive: 0.0738 µM [inhibitor, full curve, poor fit].
With `Brc1cccc(/C=N/Nc2nc(N3CCCCC3)nc(N3CCCCC3)n2)c1` the Potency was “inactive”.
With `COCCN(C(=O)C1CCCO1)c1c(N)n(CC(C)C)c(=O)[nH]c1=O` (configuration not stated) the Potency was “inactive”.
For `Cc1cc(N)n(-c2ncnc3scc(-c4ccc(Cl)cc4)c23)n1`, the Potency was inconclusive: 18.5 µM [inhibitor, single point].
For `Cc1ccc(C(=O)n2c(-c3ccccc3)cnc2SCC(=O)Nc2ccc(C)cc2C)cc1`, the Potency was “inactive”.
With `O=C1CC(N2CCOCC2)C(=O)N1c1ccc(Cl)cc1` (configuration not stated) the Potency was “inactive”.
In the case of `CC1=NN(C(=O)Cc2ccc([N+](=O)[O-])cc2)C(O)(C(F)(F)C(F)(F)F)C1` (configuration not stated), the Potency was inconclusive: 3.29 µM [inhibitor, partial curve, poor fit].
With `COc1ccccc1NC(=O)CCC(=O)Nc1nnc(C2CCCCC2)s1` the Potency was inconclusive: 18.5 µM [inhibitor, single point].
In the case of `O=C(Nc1ncn[nH]1)c1cc([N+](=O)[O-])ccc1Cl`, the Potency was inconclusive: 18.5 µM [inhibitor, single point].
In the case of `Cc1nn(-c2ccccc2)cc1/C=N/NC(N)=S`, the Potency was inconclusive: 18.5 µM [inhibitor, single point].
With `O=C(c1ccc(CS(=O)c2cccc(Cl)c2)o1)N1CCCCCC1` (configuration not stated) the Potency was inconclusive: 18.5 µM [inhibitor, single point].
With `OCC[C@@H]1C[C@H](O)[C@@H](O)[C@]2(Cc3ccccc3CCO2)O1` the Potency was “inactive”.
For `COc1ccc(C2CC(c3ccccc3)Nc3nc(NS(C)(=O)=O)nn32)cc1` (configuration not stated), the Potency was “inactive”.
For `COc1cc(C2NC(=O)NC(C)=C2C(=O)OCC2CCCCC2)cc(Cl)c1O` (configuration not stated), the Potency was inconclusive: 18.5 µM [inhibitor, single point].
With `Cc1ccc2c(c1)C(=O)OC1(O)C3C4C=CC(C4)C3C(=O)N21` (configuration not stated) the Potency was “inactive”.
In the case of `CC[N+]12CCC(CC1)C(=C(c1ccccc1)c1ccccc1)C2`, the Potency was inconclusive: 0.233 µM [inhibitor, full curve, poor fit].
With `CC(C)C(=O)Nc1ccc(NC(=O)c2ccc(COc3ccccc3)cc2)cc1` the Potency was inconclusive: 11.7 µM [inhibitor, single point].
With `O=C(Cc1ccccc1Cl)Nc1nc2ccccc2[nH]1` the Potency was inconclusive: 13.1 µM [inhibitor, single point].
For `Cc1nc2sc3c(c2c(=O)n1/N=C/c1cccnc1)CCCC3`, the Potency was inconclusive: 11.7 µM [inhibitor, single point].
For `CCN(CC)C(=O)c1ccc(CS(=O)(=O)c2ccc(OC)cc2)o1`, the Potency was inconclusive: 18.5 µM [inhibitor, single point].
For `CSc1ccc(CN2CCC(Oc3cccc(C(=O)N4CCCC4)c3)CC2)cc1`, the Potency was inconclusive: 0.0041 µM [inhibitor, full curve, poor fit].
In the case of `O=C(c1ccc([N+](=O)[O-])cc1)N(Cc1cccs1)C1CCS(=O)(=O)C1` (configuration not stated), the Potency was inconclusive: 2.62 µM [inhibitor, partial curve, poor fit].
For `COc1cc(C(C)=O)ccc1OCC(O)CN1CCN(c2c(C)cccc2C)CC1` (configuration not stated), the Potency was inconclusive: 18.5 µM [inhibitor, single point].
For `C=CCOc1c(CNc2ncn[nH]2)cccc1OC`, the Potency was inconclusive: 0.0029 µM [inhibitor, full curve, poor fit].
For `COc1nc2ccccc2c(=O)n1-c1ccc(C)cc1`, the Potency was “inactive”.
In the case of `CCN(CC)c1nc2c(s1)C(=O)NCCC2`, the Potency was inconclusive: 0.0029 µM [inhibitor, full curve, poor fit].
For `O=C(CNc1ccccc1)N/N=C/c1ccc2c(c1)OCCO2`, the Potency was “inactive”.
With `CCC(C)NC(=O)Cn1cnc2sc(C)c(S(=O)(=O)N3CCCCC3)c2c1=O` (configuration not stated) the Potency was “inactive”.
With `O=C(Nc1ccc(N2CCN(C(=O)c3ccco3)CC2)cc1)c1cc(Br)ccc1Cl` the Potency was active: 10.4 µM.
For `Cn1c2c(c(=O)n(C)c1=O)[C@@]1(C(=O)Nc3ccccc31)C(C#N)=C(N)O2`, the Potency was active: 13.1 µM.
With `c1ccc2c(-c3nnc(SCc4cn5ccccc5n4)o3)c[nH]c2c1` the Potency was active: 11.7 µM.
In the case of `COc1ccc(-c2nn(-c3ccccc3)cc2/C=C2/SC(=S)N(Cc3ccco3)C2=O)c(C)c1`, the Potency was inconclusive: 23.3 µM [inhibitor, partial curve, poor fit].
In the case of `O=c1c(-c2nn[nH]n2)coc2ccc(Cl)cc12`, the Potency was “inactive”.
With `CN(C)c1ccc(-n2cccc2)cc1` the Potency was “inactive”.
With `COC(=O)C1=CN(c2cc(C)cc(C)c2)C=C(C(=O)OC)C1c1ccc(OC)c(O)c1` the Potency was inconclusive: 11.7 µM [inhibitor, single point].
For `O=C(Oc1ccc(OC(=O)c2ccco2)c(S(=O)(=O)c2ccc(Cl)cc2)c1)c1ccco1`, the Potency was active: 10.4 µM.
In the case of `Cc1cccc(N(CC(=O)NC(C)C)C(=O)CCC(=O)Nc2nccs2)c1`, the Potency was inconclusive: 18.5 µM [inhibitor, single point].
With `COc1ccc(CC(=O)NCC2CCCN(Cc3ccccc3OC)C2)cc1` (configuration not stated) the Potency was “inactive”.
For `ClCc1nc2ccccc2n1Cc1ccccc1`, the Potency was inconclusive: 18.5 µM [inhibitor, single point].
In the case of `CC1C(=O)Nc2ccc(S(=O)(=O)N3CCc4ccccc4C3)cc2NC1=O` (configuration not stated), the Potency was inconclusive: 4.15 µM [inhibitor, partial curve, poor fit].
With `CCOC(=O)C1=C(N2CCCCC2)c2cc3c(n2C1=O)CCCC3` the Potency was inconclusive: 10.4 µM [inhibitor, single point].
In the case of `O=C(NC1CCCCC1)c1ccc(-c2cccc([N+](=O)[O-])c2)o1`, the Potency was inconclusive: 18.5 µM [inhibitor, single point].
For `CC(C)c1cc(C(=O)NNC(=S)NCc2ccco2)c(O)c(C(C)C)c1`, the Potency was inconclusive: 18.5 µM [inhibitor, single point].
In the case of `O=C(NCc1ccc(F)cc1)C1CCCN1C(=O)Nc1cccc(F)c1` (configuration not stated), the Potency was inconclusive: 16.5 µM [inhibitor, single point].
In the case of `COc1cc(NC(=O)c2ccccc2[N+](=O)[O-])c(C(=O)O)cc1OC`, the Potency was inconclusive: 11.7 µM [inhibitor, single point].
In the case of `CCOC(=O)C1(Cc2ccccc2C(F)(F)F)CCN(C(C)COC)CC1` (configuration not stated), the Potency was inconclusive: 4.15 µM [inhibitor, partial curve].
In the case of `CCOC(=O)c1c(-c2ccccc2)oc2ccc(O)c(CN3CCCC3)c12`, the Potency was active: 1.04 µM.
In the case of `Cn1cnc([N+](=O)[O-])c1Sc1nc2ccccc2[nH]1`, the Potency was inconclusive: 5.22 µM [inhibitor, partial curve, poor fit].
With `COc1ccc(/C(C)=N/NC(=O)CNC(=O)c2ccco2)cc1` the Potency was inconclusive: 18.5 µM [inhibitor, single point].
With `COc1cc(C(=O)N=c2sc3c(C)ccc(OC)c3n2C)cc(OC)c1OC` the Potency was inconclusive: 0.0041 µM [inhibitor, full curve, poor fit].
With `O=C(O)c1ccccc1/C=N/Nc1ccc(S(=O)(=O)N2CCCC2)cc1[N+](=O)[O-]` the Potency was inconclusive: 1.17 µM [inhibitor, full curve].
Potency is the fitted concentration of half-maximal effect.
